# Experimental data: the supplement of paper PMC8728848
# The list shows a part of the results.
# B1: BT4246 (Bacteroides thetaiotaomicron), Q89ZX5 (protein)
# chain: MGSSHHHHHHENLYFQGHMASDYLDVVPPEQPNIDDAMSSPTRALGFLYSCYGGVSTDLPSAYLGEINSTTDEYVLPYSWNTDGYWGAYAFNTASSTNQDWLWGTTYQYIGQCYLFLQKLENAGSDIASDAEKEQWRAECQFLVAYYHFATLRRYGPIPITDSYIPMDTPTSEYNGRFHFDYCVDWIANQLDEAAKVLPANRTVTNEWGRATSTIAKAVKARLLLYAASPLWNGSFPYPNWQNENFETPGYGKALVSNTYDKSKWERALAACQEALTLATTSGDRELYDDDEYYSRQSLNLPFVPGVADVEDNKEFLKNVMKMRYAVSTRESEGNKEIIWGLSNQFDFYSRYPLRILKKSDGTWHAGYSGVSPTLYTFEHFYTANGKLPEKDLDFTPSSEWFESAGISSREDIIKLNVGREPRFYAWMAFDGGDYGTKFAAGSPLKLEMRNSEMHGYNPSLFNRDHSVTGFLTQKFVDPVTEFYTAGGSTSGTSAPTILFRLAELYLNVAECHAALGNTQEAIDALNPVRERAGIPKLTLADITNNMTIKDWVHNERFVELWNEGHRFFDVRRWAEGAKYFGANKREGLNAEVQSPTFEEFNKRTTVDAPYVWENRMYLNPVFYNEVYKNPQMVQAPGY
# What was measured:
# Assay in all cases: glycan array binding signal (z-score within array); higher = stronger binding
# Conditions in all cases: glycan notation: IUPAC condensed, linker removed
# [1] = target: Gal3S(b1-3)[Fuc(a1-4)]GlcNAc
# How it was run: (§1)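 From the Consortium for Functional Glycomics database, 3228 arrays were curated, keeping only those whose protein sequence was available. Binding is given as a within-array Z-score averaged across arrays sharing a protein sequence and across linkers. Negative Z-scores can be read as non-binding.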
# Gal3S(b1-4)Glc = target: Gal3S(b1-4)Glc
# How it was run: as §1
# Gal3S(b1-4)Glc6S = target: Gal3S(b1-4)Glc6S
# How it was run: as §1
# Gal3S(b1-4)GlcNAc = target: Gal3S(b1-4)GlcNAc
# How it was run: as §1
# [2] = target: Gal3S(b1-4)[Fuc(a1-3)]Glc6S
# How it was run: as §1
# [3] = target: Gal3S(b1-4)[Fuc(a1-3)]GlcNAc
# How it was run: as §1
# [4] = target: Gal3S(b1-4)[Fuc(a1-3)]GlcNAc6S
# How it was run: as §1
# Gal3S4S(b1-4)GlcNAc = target: Gal3S4S(b1-4)GlcNAc
# How it was run: as §1
# Gal3S6S(b1-4)GlcNAc = target: Gal3S6S(b1-4)GlcNAc
# How it was run: as §1
# Gal3S6S(b1-4)GlcNAc6S = target: Gal3S6S(b1-4)GlcNAc6S
# How it was run: as §1
# Gal4S(b1-4)GlcNAc = target: Gal4S(b1-4)GlcNAc
# How it was run: as §1
# Gal4S6S(b1-4)GlcNAc = target: Gal4S6S(b1-4)GlcNAc
# How it was run: as §1
# Gal6P(b1-4)GlcNAc = target: Gal6P(b1-4)GlcNAc
# How it was run: as §1
# Gal6S(b1-3)GlcNAc = target: Gal6S(b1-3)GlcNAc
# How it was run: as §1
# Gal6S(b1-3)GlcNAc6S = target: Gal6S(b1-3)GlcNAc6S
# How it was run: as §1
# Gal6S(b1-4)Glc = target: Gal6S(b1-4)Glc
# How it was run: as §1
# Gal6S(b1-4)Glc6S = target: Gal6S(b1-4)Glc6S
# How it was run: as §1
# Gal6S(b1-4)GlcNAc = target: Gal6S(b1-4)GlcNAc
# How it was run: as §1
# Gal6S(b1-4)GlcNAc6S = target: Gal6S(b1-4)GlcNAc6S
# How it was run: as §1
# GalNAc(a1-3)Gal = target: GalNAc(a1-3)Gal
# How it was run: as §1
# GalNAc(a1-3)GalNAc = target: GalNAc(a1-3)GalNAc
# How it was run: as §1
# [5] = target: GalNAc(a1-3)GalNAc(b1-3)Gal(a1-4)Gal(b1-4)Glc
# How it was run: as §1
# [6] = target: GalNAc(a1-3)GalNAc(b1-3)Gal(a1-4)Gal(b1-4)GlcNAc
# How it was run: as §1
# GalNAc(b1-3)Gal = target: GalNAc(b1-3)Gal
# How it was run: as §1
# [7] = target: GalNAc(b1-3)Gal(a1-4)Gal(b1-4)GlcNAc
# How it was run: as §1
# [8] = target: GalNAc(b1-3)Gal(a1-4)Gal(b1-4)GlcNAc(b1-3)Gal(b1-4)Glc
# How it was run: as §1
# [9] = target: GalNAc(b1-3)Gal(a1-6)Gal(b1-4)Glc
# How it was run: as §1
# GalNAc(b1-3)GalNAc = target: GalNAc(b1-3)GalNAc
# How it was run: as §1
# GalNAc(b1-3)GlcNAc = target: GalNAc(b1-3)GlcNAc
# How it was run: as §1
# GalNAc(b1-4)Gal(b1-4)Glc = target: GalNAc(b1-4)Gal(b1-4)Glc
# How it was run: as §1
# GalNAc(b1-4)GlcNAc = target: GalNAc(b1-4)GlcNAc
# How it was run: as §1
# [10] = target: GalNAc(b1-4)GlcNAc(b1-2)Man
# How it was run: as §1
# [11] = target: GalNAc(b1-4)GlcNAc(b1-2)Man(a1-3)[GalNAc(b1-4)GlcNAc(b1-2)Man(a1-6)]Man(b1-4)GlcNAc(b1-4)GlcNAc
# How it was run: as §1
# [12] = target: GalNAc(b1-4)GlcNAc(b1-3)GalNAc(b1-4)GlcNAc
# How it was run: as §1
# GalNAc(b1-4)GlcNAc6S = target: GalNAc(b1-4)GlcNAc6S
# How it was run: as §1
# GalNAc(b1-6)GalNAc = target: GalNAc(b1-6)GalNAc
# How it was run: as §1
# GalNAc3S(b1-4)GlcNAc = target: GalNAc3S(b1-4)GlcNAc
# How it was run: as §1
# GalNAc3S(b1-4)GlcNAc3S = target: GalNAc3S(b1-4)GlcNAc3S
# How it was run: as §1
# [13] = target: GalNAc3S(b1-4)[Fuc(a1-3)]GlcNAc
# How it was run: as §1
# GalNAc4S6S(b1-4)GlcNAc = target: GalNAc4S6S(b1-4)GlcNAc
# How it was run: as §1
# GalNAc6S(b1-4)GlcNAc = target: GalNAc6S(b1-4)GlcNAc
# How it was run: as §1
# Glc(a1-4)Glc = target: Glc(a1-4)Glc
# How it was run: as §1
# [14] = target: Glc(a1-4)Glc(a1-4)Glc(a1-4)Glc
# How it was run: as §1
# Glc(a1-6)Glc(a1-6)Glc = target: Glc(a1-6)Glc(a1-6)Glc
# How it was run: as §1
# [15] = target: Glc(a1-6)Glc(a1-6)Glc(a1-6)Glc
# How it was run: as §1
# Glc(b1-4)Glc = target: Glc(b1-4)Glc
# How it was run: as §1
# Glc(b1-6)Glc = target: Glc(b1-6)Glc
# How it was run: as §1
# GlcA(b1-3)Gal = target: GlcA(b1-3)Gal
# How it was run: as §1
# GlcA(b1-3)GlcNAc = target: GlcA(b1-3)GlcNAc
# How it was run: as §1
# GlcA(b1-6)Gal = target: GlcA(b1-6)Gal
# How it was run: as §1
# [16] = target: GlcA3S(b1-3)Gal(b1-4)GlcNAc(b1-2)Man
# How it was run: as §1
# [17] = target: GlcA3S(b1-3)Gal(b1-4)GlcNAc(b1-3)Gal(b1-4)Glc
# How it was run: as §1
# [18] = target: GlcNAc(a1-3)Gal(b1-4)GlcNAc
# How it was run: as §1
# [19] = target: GlcNAc(a1-4)Gal(b1-3)GlcNAc
# How it was run: as §1
# [20] = target: GlcNAc(a1-4)Gal(b1-4)GalNAc
# How it was run: as §1
# [21] = target: GlcNAc(a1-4)Gal(b1-4)GlcNAc
# How it was run: as §1
# [22] = target: GlcNAc(a1-4)Gal(b1-4)GlcNAc(b1-3)Gal(b1-4)Glc
# How it was run: as §1
# [23] = target: GlcNAc(a1-4)Gal(b1-4)GlcNAc(b1-3)Gal(b1-4)GlcNAc
# How it was run: as §1
# [24] = target: GlcNAc(a1-4)Gal(b1-4)GlcNAc(b1-3)Gal(b1-4)GlcNAc(b1-3)Gal(b1-4)GlcNAc
# How it was run: as §1
# [25] = target: GlcNAc(a1-4)Gal(b1-4)GlcNAc(b1-3)Gal(b1-4)[Fuc(a1-3)]GlcNAc(b1-3)Gal(b1-4)[Fuc(a1-3)]GlcNAc
# How it was run: as §1
binder,measurement,setting,value
B1,glycan array binding signal (z-score),[1],-0.539
same,glycan array binding signal (z-score),Gal3S(b1-4)Glc,-0.648
same,glycan array binding signal (z-score),Gal3S(b1-4)Glc6S,-0.532
same,glycan array binding signal (z-score),Gal3S(b1-4)GlcNAc,0.273
same,glycan array binding signal (z-score),[2],0.805
same,glycan array binding signal (z-score),[3],0.943
same,glycan array binding signal (z-score),[4],-0.247
same,glycan array binding signal (z-score),Gal3S4S(b1-4)GlcNAc,1.89
same,glycan array binding signal (z-score),Gal3S6S(b1-4)GlcNAc,-0.837
same,glycan array binding signal (z-score),Gal3S6S(b1-4)GlcNAc6S,-1.17
same,glycan array binding signal (z-score),Gal4S(b1-4)GlcNAc,0.082
same,glycan array binding signal (z-score),Gal4S6S(b1-4)GlcNAc,0.27
same,glycan array binding signal (z-score),Gal6P(b1-4)GlcNAc,1.08
same,glycan array binding signal (z-score),Gal6S(b1-3)GlcNAc,0.765
same,glycan array binding signal (z-score),Gal6S(b1-3)GlcNAc6S,-0.574
same,glycan array binding signal (z-score),Gal6S(b1-4)Glc,1.17
same,glycan array binding signal (z-score),Gal6S(b1-4)Glc6S,0.309
same,glycan array binding signal (z-score),Gal6S(b1-4)GlcNAc,-0.871
same,glycan array binding signal (z-score),Gal6S(b1-4)GlcNAc6S,-1
same,glycan array binding signal (z-score),GalNAc(a1-3)Gal,0.339
same,glycan array binding signal (z-score),GalNAc(a1-3)GalNAc,-0.002
same,glycan array binding signal (z-score),[5],-0.376
same,glycan array binding signal (z-score),[6],1
same,glycan array binding signal (z-score),GalNAc(b1-3)Gal,-0.284
same,glycan array binding signal (z-score),[7],-0.469
same,glycan array binding signal (z-score),[8],0.401
same,glycan array binding signal (z-score),[9],-1.14
same,glycan array binding signal (z-score),GalNAc(b1-3)GalNAc,-0.538
same,glycan array binding signal (z-score),GalNAc(b1-3)GlcNAc,1.7
same,glycan array binding signal (z-score),GalNAc(b1-4)Gal(b1-4)Glc,-0.832
same,glycan array binding signal (z-score),GalNAc(b1-4)GlcNAc,0.187
same,glycan array binding signal (z-score),[10],-0.775
same,glycan array binding signal (z-score),[11],-0.395
same,glycan array binding signal (z-score),[12],-0.141
same,glycan array binding signal (z-score),GalNAc(b1-4)GlcNAc6S,-0.616
same,glycan array binding signal (z-score),GalNAc(b1-6)GalNAc,0.406
same,glycan array binding signal (z-score),GalNAc3S(b1-4)GlcNAc,1.88
same,glycan array binding signal (z-score),GalNAc3S(b1-4)GlcNAc3S,-0.1
same,glycan array binding signal (z-score),[13],-1.91
same,glycan array binding signal (z-score),GalNAc4S6S(b1-4)GlcNAc,-0.012
same,glycan array binding signal (z-score),GalNAc6S(b1-4)GlcNAc,-0.344
same,glycan array binding signal (z-score),Glc(a1-4)Glc,1.34
same,glycan array binding signal (z-score),[14],-1.03
same,glycan array binding signal (z-score),Glc(a1-6)Glc(a1-6)Glc,-0.593
same,glycan array binding signal (z-score),[15],-0.919
same,glycan array binding signal (z-score),Glc(b1-4)Glc,-0.822
same,glycan array binding signal (z-score),Glc(b1-6)Glc,-2.27
same,glycan array binding signal (z-score),GlcA(b1-3)Gal,-0.824
same,glycan array binding signal (z-score),GlcA(b1-3)GlcNAc,-0.525
same,glycan array binding signal (z-score),GlcA(b1-6)Gal,-0.398
same,glycan array binding signal (z-score),[16],0.008
same,glycan array binding signal (z-score),[17],-0.356
same,glycan array binding signal (z-score),[18],-1.44
same,glycan array binding signal (z-score),[19],0.164
same,glycan array binding signal (z-score),[20],1.53
same,glycan array binding signal (z-score),[21],-0.735
same,glycan array binding signal (z-score),[22],-0.344
same,glycan array binding signal (z-score),[23],-0.394
same,glycan array binding signal (z-score),[24],-0.441
same,glycan array binding signal (z-score),[25],3.11

# 4 entries from above in a different format.
binder | measurement | setting | value
B1 | glycan array binding signal (z-score) | [2] | 0.805
same | glycan array binding signal (z-score) | [3] | 0.943
same | glycan array binding signal (z-score) | [4] | -0.247
same | glycan array binding signal (z-score) | Gal3S4S(b1-4)GlcNAc | 1.89
